Source: PubChem BioAssay AID1508597 (Cure First, 2020)

Purpose: 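Knock-downs altering ovarian cancer cell survival with or without PARP inhibitor rucaparib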 (primary screen)
Cells: human ovarian carcinoma lines grown from tumours: OCI-P5x (papillary serous) and OCI-C5x (clear cell)
Reagent: siRNA pool against human genes, 1.25 pmol siRNA per well
Timing: 72 h or 96 h, depending on the cell culture
Challenge: rucaparib 20 µM (about IC30) or vehicle, present until read-out
Rucaparib or vehicle: Vehicle
Cell line: OCI-P5x (serous)
Read-out: 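ATP luminescence measured at 72 or 96 h according to the culture, then normalised and expressed as percent viability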
Direction: viability, normalised: higher = more viable cells remaining
Active means: 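Active when normalised viability falls below 80 percent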
Meaning of the calls: active = viability under 80%; inactive = viability 80% or more
Shown is a random part of the about 2,100 reagents, under one of the conditions tested. 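Calls flag viability under 80% in either arm, not effects specific to rucaparib; the reference for percent is not stated.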 A reagent listed more than once was tested more than once; the source does not tell the runs apart. The record does not give: the 100% reference.

gene knocked down	technical replicate	viability, normalised (%)	outcome
UTP3 (GeneID 57050)	1	79	active
UTP3 (GeneID 57050)	2	63.2	active
UTP3 (GeneID 57050)	3	83.5	inactive
ING5 (GeneID 84289)	1	68	active
ING5 (GeneID 84289)	2	80.2	inactive
ING5 (GeneID 84289)	3	70.2	active
SPTB (GeneID 6710)	1	80.7	inactive
SPTB (GeneID 6710)	2	74	active
SPTB (GeneID 6710)	3	118	inactive
KAT7 (GeneID 11143)	1	55	active
KAT7 (GeneID 11143)	2	54.4	active
KAT7 (GeneID 11143)	3	97.4	inactive
ABL2 (GeneID 27)	1	77.6	active
ABL2 (GeneID 27)	2	77.7	active
ABL2 (GeneID 27)	3	72.7	active
MST1R (GeneID 4486)	1	83.1	inactive
MST1R (GeneID 4486)	2	84.5	inactive
MST1R (GeneID 4486)	3	95.6	inactive
AK3 (GeneID 50808)	1	68.7	active
AK3 (GeneID 50808)	2	74.1	active
AK3 (GeneID 50808)	3	66.6	active
CDCA8 (GeneID 55143)	1	68.6	active
CDCA8 (GeneID 55143)	2	65.1	active
CDCA8 (GeneID 55143)	3	73.3	active
NAP1L4 (GeneID 4676)	1	44.2	active
NAP1L4 (GeneID 4676)	2	55.6	active
NAP1L4 (GeneID 4676)	3	62.2	active
ESPL1 (GeneID 9700)	1	76.9	active
ESPL1 (GeneID 9700)	2	82.3	inactive
ESPL1 (GeneID 9700)	3	80.6	inactive
SLX1A (GeneID 548593)	1	70.5	active
SLX1A (GeneID 548593)	2	67.7	active
SLX1A (GeneID 548593)	3	76.8	active
TJP1 (GeneID 7082)	1	49.6	active
TJP1 (GeneID 7082)	2	48.3	active
TJP1 (GeneID 7082)	3	55.3	active
TRERF1 (GeneID 55809)	1	93.7	inactive
TRERF1 (GeneID 55809)	2	85.5	inactive
TRERF1 (GeneID 55809)	3	97.8	inactive
WNT5A (GeneID 7474)	1	42.6	active
WNT5A (GeneID 7474)	2	57.7	active
WNT5A (GeneID 7474)	3	59.8	active
ULK4 (GeneID 54986)	1	71.2	active
ULK4 (GeneID 54986)	2	63.3	active
ULK4 (GeneID 54986)	3	72.7	active
PARP6 (GeneID 56965)	1	41.2	active
PARP6 (GeneID 56965)	2	49.1	active
PARP6 (GeneID 56965)	3	54.5	active
PHF3 (GeneID 23469)	1	57.2	active
PHF3 (GeneID 23469)	2	65.5	active
PHF3 (GeneID 23469)	3	87.6	inactive
PNCK (GeneID 139728)	1	96.4	inactive
PNCK (GeneID 139728)	2	62.2	active
PNCK (GeneID 139728)	3	77.3	active
BABAM1 (GeneID 29086)	1	87.8	inactive
BABAM1 (GeneID 29086)	1	66.9	active
BABAM1 (GeneID 29086)	2	77.1	active
BABAM1 (GeneID 29086)	2	58.1	active
BABAM1 (GeneID 29086)	3	93.9	inactive
BABAM1 (GeneID 29086)	3	63.5	active
